The subject of this experiment is Salmonella enterica serovar Typhimurium SL1344. The experiment in a line: bacterial growth OD600 after 18 h with compound and polymyxin B; higher = more bacterial growth (less inhibition). The following applies: 50 µM, Mueller-Hinton broth.

The list shows a part of the results. These are raw signals, not scaled to a control.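 Primary screen: polymyxin B was added at a level permeabilizing Salmonella outer membranes while sparing inner membranes. DMSO wells, both with and without polymyxin B, established maximum growth. Plate-to-plate variation meant each plate was ranked on its own, and the lowest-OD600 compounds were selected as hits.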

For the molecule `O=C1CC(CNc2ccc(-c3nc(C4CC4)no3)cn2)CN1C1CCCC1` (stereo not given), for the setting “polymyxin B 0.75 µg/mL”, the “bacterial growth OD600” value is 0.769.

For the molecule `OCCC1CN(C2CCCC2)CCN1Cc1ccccc1F` (stereo not given), where the note is “polymyxin B 1 µg/mL”, the “bacterial growth OD600” value was 0.886.

For the molecule `CC(C)Cc1cn[nH]c1C1CCCN(C(=O)Cc2ccc3c(c2)OCO3)C1` (stereo not given), the “bacterial growth OD600” value (polymyxin B 0.75 µg/mL) was determined as 0.811.

For the molecule `CN1CCCC2(CCN(C(=O)Cc3cccc4ccccc34)C2)C1=O` (stereo not given), under “polymyxin B 1 µg/mL”, the “bacterial growth OD600” value is 0.919.

As to `Cc1cc(C)cc(-n2ncc3c2CCCC3NC(=O)Cc2cccnc2)c1` (stereo not given), the “bacterial growth OD600” value (polymyxin B 1 µg/mL) came out at 0.89.

For the molecule `CN(Cc1cn(Cc2ccccc2)nc1-c1cc2ccccc2o1)CC1COCCO1` (stereo not given), the “bacterial growth OD600” value (polymyxin B 1 µg/mL) was 0.76.

For the molecule `CC(C)c1ccc(NC2CCCN(C(=O)C[n+]3cc([O-])on3)C2)cc1` (stereo not given), the “bacterial growth OD600” value (polymyxin B 1 µg/mL) came out at 0.908.

Take `COc1ccc(NC2CCCN(C(=O)c3ccccc3N3CCOCC3)C2)cc1OC` (stereo not given): where the note is “polymyxin B 1 µg/mL”, the “bacterial growth OD600” value is 0.881.

For the molecule `CCOC(=O)N1CCN(Cc2ccc3c(c2)CN(C(=O)C2CC(=O)N(CCOC)C2)CCO3)CC1` (stereo not given), the “bacterial growth OD600” value (polymyxin B 0.75 µg/mL) amounted to 0.919.

With `O=C(c1ccc2c(c1)OCO2)N1CCCC(Nc2ccc(F)c(F)c2)C1` (stereo not given), the “bacterial growth OD600” value (polymyxin B 1 µg/mL) came to 0.813.

As to `CSc1ccc(CC2(CCC(=O)N3CCCC(C(=O)CCc4ccccc4)C3)CCC(=O)N2)cc1` (stereo not given), the “bacterial growth OD600” value (polymyxin B 0.75 µg/mL) came out at 0.008.

For `CC(C)Cc1ccc(CN2CCCC(NC(=O)CCc3cnccn3)C2)cc1` (stereo not given), the “bacterial growth OD600” value (polymyxin B 1 µg/mL) worked out at 1.3.

Consider `CC(NC(=O)c1ccc(OC2CCN(S(=O)(=O)N(C)C)CC2)cc1)c1nccs1` (stereo not given), for which the “bacterial growth OD600” value (polymyxin B 1 µg/mL) was 1.23.

In the case of `COCCN1C(=O)CC(CC(=O)N2CCCCC2c2nccs2)(c2ccccc2OC)C1=O` (stereo not given), where the note is “polymyxin B 0.75 µg/mL”, the “bacterial growth OD600” value was 0.942.

As to `COc1ccccc1CN1CC(C(=O)N2CCC(C(=O)c3ccccc3)CC2)CCC1=O` (stereo not given), for the setting “polymyxin B 1 µg/mL”, the “bacterial growth OD600” value stood at 0.913.

Consider `C=CCN(CC=C)C(=O)c1cc(Cn2ccc3ccccc32)[nH]n1`, for which the “bacterial growth OD600” value (polymyxin B 1 µg/mL) was found to be 0.78.

In the case of `O=C(c1ccc2oc(CCc3ccccc3)nc2c1)N1CCCC1c1ccccn1` (stereo not given), the “bacterial growth OD600” value (polymyxin B 1 µg/mL) is 0.813.

Regarding `CCCn1cc(C(=O)N2CCOC(CCCC(C)C)C2)c(C)n1` (stereo not given), the “bacterial growth OD600” value (polymyxin B 0.75 µg/mL) is 0.87.

On to `CC(C)N(C)C(=O)C1CCC(=O)N(CCc2cccc(F)c2)C1` (stereo not given), for which, where the note is “polymyxin B 1 µg/mL”, the “bacterial growth OD600” value was found to be 0.858.

As to `Cn1nccc1C(=O)N1CCCC(N2CCN(Cc3ccc4c(c3)OCO4)CC2)C1` (stereo not given), the “bacterial growth OD600” value (polymyxin B 1 µg/mL) was found to be 0.838.

As to `COc1ccccc1CCNC(=O)Cc1ccc(N2CCC(NCC3COCCO3)CC2)cc1` (stereo not given), the “bacterial growth OD600” value (polymyxin B 0.75 µg/mL) was 1.03.

Consider `CCOC(=O)C1(Cc2ccccc2F)CCCN(C(=O)CCN2CCCC2=O)C1` (stereo not given), for which the “bacterial growth OD600” value (polymyxin B 1 µg/mL) was 1.

Consider `COCc1ccc(C(=O)Nc2ccc(-c3nc(CNC(=O)c4ccccc4N(C)C)c(C)o3)cc2)o1`, for which, under “polymyxin B 0.75 µg/mL”, the “bacterial growth OD600” value turned out to be 0.002.

As for `COC(=O)c1ccc(CN2CCCC(c3[nH]ncc3Cc3ccccc3)C2)cc1` (stereo not given), the “bacterial growth OD600” value (polymyxin B 0.75 µg/mL) is 0.92.

On to `CCOC(=O)N1CCN(C(=O)c2ccc3oc(CCc4ccccc4)nc3c2)CC1`, for which the “bacterial growth OD600” value (polymyxin B 1 µg/mL) is 0.902.

Consider `O=C(NCc1ccccc1Cl)C1CCC(=O)N(CC2CCCCC2)C1` (stereo not given), for which the “bacterial growth OD600” value (polymyxin B 1 µg/mL) stood at 0.994.

Regarding `CN1CCN(C(=O)CCc2nnc(-c3ccc(-c4ccccc4)cc3)o2)CC1`, under “polymyxin B 1 µg/mL”, the “bacterial growth OD600” value was found to be 0.89.

For `O=C(c1ccccc1OC1CCN(CC2CCCC2)CC1)N1CCCCC1`, the “bacterial growth OD600” value (polymyxin B 1 µg/mL) stood at 1.01.

For the molecule `CCOc1cc(CN2CCC(CCC(=O)Nc3ccccc3)CC2)ccc1OC`, the “bacterial growth OD600” value (polymyxin B 1 µg/mL) was found to be 0.865.

In the case of `CC#CC(=O)N1CCCC(N2CCN(c3cccc(Cl)c3)CC2)C1` (stereo not given), the “bacterial growth OD600” value (polymyxin B 1 µg/mL) was found to be 0.702.

The values above are taken from the supplement of paper PMC12889115.
